Laboratory results taken from PubChem BioAssay AID1347076 (National Center for Advancing Translational Sciences (NCATS), 2019).
The whole screen tested about 400,000 compounds, of which about 13,000 (3.2%) were called active. This list was built around the results that the source calls inconclusive (neither active nor inactive); the mix of calls is not that of the screen. The call rests on the fitted dose curve; in most records, active means well fitted cell-killing curve with a large enough effect; inconclusive means small, poorly fitted or top-dose-only effect, or effect the other way; inactive means flat fitted curve, though single readings scatter. Potencies beside an inconclusive call are fits to weak or partial responses and may not hold up.

Assay: qHTS assay for MDR1-selective chemotherapeutics: Primary screen using the drug-selected MDR subline cells KB-V1; further: nearly all actives have a fitted effect of over 60% in size
Settings: KB-V1 MDR cells viability, CellTiter-Glo, 72 h; series mostly up to 46.1 µM
Method in brief: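 Cells of the MDR subline KB-V1 are plated, dosed with compound at multiple concentrations, and incubated 72 h at 37 degrees C; CellTiter-Glo is then added and luminescence read after 10 min.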
Potency means the concentration at half of the fitted maximal effect.

Structure (SMILES) | Potency
O=C(NCc1ccc(Cl)cc1)C1CCN(C(=O)c2ccco2)CC1 | inconclusive: 14.6 µM [cytotoxic, partial curve, poor fit]
COc1ccc(Cl)cc1S(=O)(=O)n1cnc2ccccc21 | inconclusive: 29.1 µM [cytotoxic, single point]
Cc1cc(CNC(=O)COc2ccc(C#N)cc2)c2ccccc2n1 | inconclusive: 18.4 µM [cytotoxic, single point]
O=C(Nc1sc2c(c1C(=O)NCc1ccco1)CCCC2)c1ccc2c(c1)OCO2 | active: 14.6 µM
CCCCOc1ccc(C(C)NC(=O)C2CCCN(S(=O)(=O)CCC)C2)cc1 (configuration not stated) | inconclusive: 7.31 µM [cytotoxic, partial curve]
O=C(OCC(=O)N1CCCC1)c1cc(Br)ccc1Cl | inactive
COCCN(C(=O)Cc1cccs1)c1nnc(-c2ccncc2)s1 | inactive
COc1ccc(OCCN2CCN(C(=O)c3ccc(OC)cc3)CC2)cc1 | inconclusive: 8.2 µM [cytotoxic, partial curve, poor fit]
CCOc1ccccc1C(=O)NCC(=O)OCCOc1cccc(Cl)c1 | inconclusive: 23.1 µM [rising, single point]
Cc1ccc(Cn2nnnc2CN2CCC(NC(=O)C(C)(C)C)CC2)cc1 | inconclusive: 29.1 µM [cytotoxic, single point]
C[C@@H]1CN([C@@H](C)CO)C(=O)c2cc(NC(=O)Nc3ccccc3)ccc2O[C@@H](C)CCCCO[C@H]1CN(C)C(=O)Nc1ccc(C(F)(F)F)cc1 | inactive
C=C(C)Cn1c(=O)c2c(nc3n2CCN3c2cccc(Cl)c2C)n(C)c1=O | inconclusive: 20.6 µM [cytotoxic, single point]
CC1CCc2c(sc(NC(=O)CSc3nc4c(c(C(F)(F)F)n3)CCc3ccccc3-4)c2C(N)=O)C1 (configuration not stated) | inconclusive: 23.1 µM [rising, partial curve, poor fit]
CC(=O)N1CCc2c(sc3c2c(=O)n(CCc2ccccc2)c(=O)n3Cc2ccc(Cl)cc2)C1 | inconclusive: 29.1 µM [cytotoxic, single point]
COc1ccc(CCN2C(=O)NC(NS(=O)(=O)c3ccc(Cl)cc3)(C(F)(F)F)C2=O)cc1OC (configuration not stated) | inconclusive: 29.1 µM [rising, single point]
CC(NCc1ccc(OCC(N)=O)cc1)C12CC3CC(CC(C3)C1)C2 (configuration not stated) | inconclusive: 7.31 µM [cytotoxic, partial curve, poor fit]
Cc1ccc2[nH]c(O)c(N=NC(=O)CCc3ccccc3)c2c1Br | inconclusive: 20.6 µM [cytotoxic, single point]
C=C1CC2C3CC[C@@]4(OCOC45COCO5)[C@@]3(C)C(O)CC2[C@@]2(C)CCC(=O)C=C12 (some centres not stated) | inconclusive: 20.6 µM [cytotoxic, partial curve]
CCCCn1cnc2c(cnn2-c2ccc(F)cc2)c1=O | inconclusive: 0.291 µM [cytotoxic, full curve]
CN(C)C(=O)c1cccc(-c2cnc3c(NC=O)cc(-c4cccc(C(F)(F)F)c4)cn23)c1 | inconclusive: 29.1 µM [cytotoxic, single point]
CN(C)c1ccc(CNc2ncn[nH]2)cc1 | inconclusive: 29.1 µM [rising, partial curve, poor fit]
CCCCOC(=O)N/N=C/C=C/c1ccccc1 | inactive
CCOCCCNC(=O)C(NC(=O)Cc1cccs1)c1ccc(Cl)cc1 (configuration not stated) | inconclusive: 11.6 µM [cytotoxic, partial curve]

Structure (SMILES) | Potency
CCCCn1c(SCC(=O)NC2CCCC2)nnc1-c1ccco1 | inconclusive: 18.4 µM [cytotoxic, partial curve, poor fit]
COc1ccc(CCN2C(=O)c3ccccc3C2c2nnnn2-c2ccc3c(c2)OCCO3)cc1OC (configuration not stated) | inconclusive: 8.2 µM [cytotoxic, partial curve]
CCOC(=O)N1CCN(c2c(F)cc3[nH]c(=S)[nH]c3c2Br)CC1 | active: 8.2 µM
COc1ccccc1CN1C(=O)CCC1(C)C(=O)NC1CCCCCC1 (configuration not stated) | inconclusive: 16.4 µM [cytotoxic, partial curve, poor fit]
CSc1ccc(/C=C/C(=O)c2ccc(O)cc2)cc1 | inconclusive: 29.1 µM [cytotoxic, single point]
CC(C)(C)c1ccc(C(=O)Nc2ccc(NC(=O)C(=O)O)cc2)o1 | inconclusive: 23.1 µM [rising, single point]
COc1ccc(-c2nn(CCC#N)cc2C(=O)Nc2cccc(C(=O)O)c2)cc1OC | inactive
Cc1cc(NC(=O)Cn2nnc3sc4c(c3c2=O)CCCC4)no1 | inconclusive: 23.1 µM [cytotoxic, partial curve]
COc1cc(C(=O)Nc2ccc(S(=O)(=O)Nc3nccc(C)n3)cc2)cc(OC)c1OC | inactive
COc1nc(N(c2ccccc2)c2ccccc2)nc(-n2ccnc2)n1 | inconclusive: 23.1 µM [cytotoxic, partial curve, poor fit]
Cc1ccc(NC(=O)CSc2nnc(-c3ccco3)c(-c3ccco3)n2)cc1 | active: 5.17 µM
CCOC(=O)Cn1c(=O)n(-c2ccccc2OC)c2nc(-c3cccc(F)c3)nc(C(N)=O)c21 | inconclusive: 5.17 µM [cytotoxic, full curve]
Cc1ccc(OCC(=O)NCCCNC(=O)c2cccnc2)cc1 | inconclusive: 23.1 µM [rising, single point]
CCCc1c(-c2ccc(F)cc2F)ncn1Cc1ccccc1OC | inconclusive: 20.6 µM [cytotoxic, single point]
CCn1c(SCC(=O)C(C)(C)C)nnc1-c1ccccn1 | inconclusive: 25.9 µM [cytotoxic, single point]
O=c1c(Cc2ccccc2)c(O)ccn1Cc1ccco1 | inconclusive: 29.1 µM [rising, single point]
O=C(NC1CCCC1)c1ccccc1-c1ccccc1 | active: 14.6 µM
CS(=O)(=O)N(CC(=O)N1CCN(Cc2ccccc2)CC1)C1CCCCC1 | inactive
C[C@@H]1COC(=O)[C@H](NC(=O)OCC2c3ccccc3-c3ccccc32)C/C=C\C[C@@H](CC(=O)N[C@H](CO)Cc2ccccc2)C(=O)N1 | inconclusive: 0.291 µM [cytotoxic, full curve, poor fit]
COc1ccc(-c2cc(=O)c3cc(C)ccc3[nH]2)cc1 | inactive
COc1ccc(N2CC(O)=C(c3nc(-c4ccc(F)cc4)cs3)C2=N)cc1OC | inactive
N#Cc1ccc(CN2C=NS(=O)(=O)c3ccccc32)cc1 | inactive
COc1ccc(-c2nc(C)c(CCNS(=O)(=O)c3cc(C)c(C)cc3C)s2)cc1 | active: 18.4 µM

Copied from the list.
Potency, Cc1cc(NC(=O)Cn2nnc3sc4c(c3c2=O)CCCC4)no1 is entered as inconclusive: 23.1 µM [cytotoxic, partial curve]
Potency, COc1ccc(OCCN2CCN(C(=O)c3ccc(OC)cc3)CC2)cc1 is entered as inconclusive: 8.2 µM [cytotoxic, partial curve, poor fit]

The list goes on:

Structure (SMILES) | Potency
COc1ccc(/C=C2\SC(=S)N(N3CCOCC3)C2=O)c(OC)c1 | inconclusive: 29.1 µM [rising, single point]
CCSc1ccc2nnc(-c3cccc(F)c3)n2n1 | inconclusive: 15.8 µM [cytotoxic, single point]
O=C(C[N+]1(CCO)CCOCC1)c1ccc2ccccc2c1 | inactive
NC(Cc1ccccc1)c1csc(Nc2ccc(C(F)(F)F)cn2)n1 (configuration not stated) | inconclusive: 29.1 µM [cytotoxic, single point]
Cc1cc(C(=O)COC(=O)CC2Sc3ccccc3NC2=O)c(C)n1-c1ccc2c(c1)OCO2 (configuration not stated) | inconclusive: 23.1 µM [cytotoxic, partial curve, poor fit]
O=C(NCCO)c1ccc(-c2cnc3cccnn23)cc1 | inconclusive: 16.4 µM [rising, single point]
C=CCn1c(SCCNC(C)=O)nc2cc(-c3ccccc3)sc2c1=O | inconclusive: 1.3 µM [cytotoxic, full curve]
Cc1ccccc1-n1c(SCc2ccc(Cl)cc2)nc2[nH]ncc2c1=O | inactive
Cc1cc(C)c2c(C)c(C(=O)Nc3c(C)n(C)n(-c4ccccc4)c3=O)oc2c1 | active: 8.2 µM
Cc1cccc(C)c1NC(=O)c1sccc1SCc1cccc(C(F)(F)F)c1 | inconclusive: 14.6 µM [cytotoxic, single point]
CCn1c(COc2ccccc2C)nnc1SCC(=O)NC1CCCC1 | inconclusive: 14.6 µM [cytotoxic, partial curve]
Cc1cc(C)n(-c2ccc(Cl)c(C(=O)NCc3ccccc3)n2)n1 | active: 11.6 µM
CCN(CC)CCCNC(=O)c1c(O)c2c([nH]c1=O)CCCC2 | inconclusive: 11.6 µM [cytotoxic, partial curve, poor fit]
COc1ccc(S(=O)(=O)NCc2cccnc2)cc1OC | inconclusive: 9.2 µM [rising, partial curve]
O=C(O)CC1c2ccccc2S(=O)(=O)N1Cc1ccccc1 (configuration not stated) | inconclusive: 18.4 µM [rising, partial curve, poor fit]
Oc1ccc(N=Nc2ccc3c(c2)OCCO3)c(O)c1 | inactive
Cc1ccc(Cn2ncc3c(N4CCOCC4)ncnc32)cc1 | inconclusive: 20 µM [cytotoxic, single point]
CCOc1ccc2[nH]c(=O)c(CN(Cc3nnnn3Cc3ccco3)C3CCCCC3)cc2c1 | inactive
Brc1ccc(/C=C/C=N/Nc2nc3ccccc3s2)cc1 | inactive
N#Cc1ccccc1Cn1cc(/C=C/[N+](=O)[O-])c2ccccc21 | inconclusive: 29.1 µM [cytotoxic, single point]
CCOC(=O)CCCCCC(=O)Nc1ccc2c(c1)C(=O)N([C@@H](C)CO)C[C@@H](C)[C@H](CN(C)C(=O)Nc1ccccc1)OCCCC[C@H](C)O2 | inconclusive: 0.013 µM [rising, full curve]
